The text below walks through data of patent US9301885B2, “Absorbent article” (UNICHARM CORPORATION, priority 2011, dated 2016).

Data set [1] is described as follows: Absorbent body migration rate. The arrangement: species or system horse.
Data set [2] can be described thus: Visual evaluation of top sheet whiteness after the absorbent body migration rate test. Also noted: species or system horse; key: VG (Very Good): Virtually no redness of blood remaining, and no clear delineation between areas with and without blood.; G (Good): Slight redness of blood remaining, but difficult to delineate between areas with and without blood.; F (Fair): Slight redness of blood remaining, areas with blood discernible.; P (Poor): Redness of blood completely remaining. The note with it: Table 3; skin contact surface, visual scale.

Data set [3] can be described thus: Liquid residue test, blood cell count per 1 g of top sheet. The note with it: per 1 g of top sheet coated at about 5 g/m^2. The arrangement: species or system horse.
A short description of data set [4]: Liquid dropping test (color difference of top sheet). The note with it: CIE L*a*b*, skin contact surface of top sheet coated at about 5 g/m^2, 40 seconds after second dropping of 3 mL horse EDTA blood.
The mark [5] stands for this setting: Table 3, napkin top sheet coated as in Production Example 1.
[6] abbreviates: Table 2, time for horse EDTA blood to migrate from top sheet into absorbent body.

With Caprylic acid diglyceride, the “Absorbent body migration rate” value in data set [1] (setting [5]) amounted to 9 s. For the same compound, in data set [2], the Top sheet whiteness result was “G”.

Take `CCCCCCCCCCCCOC(=O)CCCCCCCCCCC` [ELECTOL WE20]: in data set [1] (setting [5]), the “Absorbent body migration rate” value was found to be 5 s. In addition, the Top sheet whiteness entry in data set [2] is given as “VG”.

For the compound `CCCCCCCCCCCC(=O)OCC(O)CO` (centres unmarked) [lauric acid monoglyceride], the “Absorbent body migration rate” value in data set [1] (setting [6]) and in data set [1] (setting [5]) was 7 s throughout. Besides, the Blood cell count in data set [3] turned out to be 7e+07 g⁻¹. The Top sheet whiteness result in data set [2] is “P”. Further, the “Color difference ΔE” value in data set [4] worked out at 29.8.

Turning to `CCCCC(CC)C(=O)OCC(C)(C)COC(=O)C(CC)CCCC` (centres unmarked) [H-208BRS, Neopentylglycol di(2-ethylhexanoate)], the “Absorbent body migration rate” value in data set [1] (setting [6]) and in data set [1] (setting [5]) was 5 s each time. The same compound displayed a Blood cell count in data set [3] of 1.5e+08 g⁻¹. Moreover, the Top sheet whiteness result in data set [2] is given as “VG”. Besides, the “Color difference ΔE” value in data set [4] is on record as 39.4.

In data set [3], `CCCCC(CC)C(=O)OCC(COC(=O)C(CC)CCCC)(COC(=O)C(CC)CCCC)COC(=O)C(CC)CCCC` (centres unmarked) [H-408BRS, Pentaerythritol tetra(2-ethylhexanoate)] gave a Blood cell count of 1.8e+08 g⁻¹. Moreover, in data set [4], the “Color difference ΔE” value came out at 45.5.

With `CCCCCCCCOC(=O)CCCCC(=O)OCCCCCCCC` [Dioctyl adipate], in data set [1] (setting [5]), the “Absorbent body migration rate” value stood at 6 s. For the same compound, in data set [2], the Top sheet whiteness result was “VG”.

`CCCCCCCCCCCCCC(=O)OCCCCCCCCCCCC` [ELECTOL WE40]: the “Absorbent body migration rate” value in data set [1] (setting [6]) and in data set [1] (setting [5]) was 4 s in each case. This compound also registered a Blood cell count in data set [3] of 6e+07 g⁻¹. Moreover, in data set [2], the Top sheet whiteness result is on record as “VG”. Also, the “Color difference ΔE” value in data set [4] came out at 43.5.

For the compound Isopropyl citrate, the “Absorbent body migration rate” value in data set [1] (setting [5]) is 5 s. Also, the Top sheet whiteness entry in data set [2] is reported as “G”.

With `CCCCCCCC(=O)OCC(COC(=O)CCCCCCC)OC(=O)CCCCCCC` [PANACET 800], in data set [1] (setting [5]), the “Absorbent body migration rate” value amounted to 3 s. The Top sheet whiteness entry in data set [2] is reported as “VG”.

Regarding `CCCCC(CC)C(=O)OCC(COC(=O)C(CC)CCCC)OC(=O)C(CC)CCCC` (centres unmarked) [PANACET 800B], the “Absorbent body migration rate” value in data set [1] (setting [5]) was found to be 3 s. Further, the Top sheet whiteness entry in data set [2] was “VG”.
